The results in this text go back to PubChem BioAssay AID220 (DTP/NCI, 2004).

The list does not hold the whole screen: it gathers some chemical classes. Other doses and runs of a compound may be missing. T/C: endpoint of the treated group in % of that of the vehicle group. Schedules are NCI's codes, taken here to give the interval after Q, in days (D) or hours (H), and the number of doses after X. Some T/C values are followed by the survivors on the day toxicity was checked; where neither a count nor a note follows, no animal had died by that day. Some entries give survivors of the animals treated and no T/C: the source holds a T/C of zero for them, seemingly a mark for toxic or unscored doses. Counts of survivors are from the toxicity check, whose day is not always given; animals may have died later.

The assay concerns CD8F1 mice, subcutaneous mammary adenocarcinoma, T/C%. Kind of assay: NCI In Vivo Anticancer Drug Screen. Data for tumor model Mammary Adenocarcinoma CD8F1 (subcutaneous) in CD8F1. Particulars: higher T/C = larger tumour. As for the experimental part: The antitumor activity of compounds was measured in mice bearing transplantable tumors. Survival or tumor size were measured and the results are expressed as the measurement made in the treated group (T) divided by the measurement made in the vehicle treated control group (C). The tumor model used in this assay is Mammary Adenocarcinoma CD8F1 (subcutaneous) in CD8F1

Setting [1] is: T/C endpoint: median tumor weight (est.), dose: 12.5 mg/kg/injection, schedule: Q07DX005 (ip), vehicle: saline with Tween-80, evaluated on day 30.
Setting [2] is: T/C endpoint: median tumor weight (est.), dose: 25.0 mg/kg/injection, schedule: Q07DX005 (ip), vehicle: saline with Tween-80, evaluated on day 30.
The mark [3] stands for this setting: T/C endpoint: median tumor weight (est.), dose: 50.0 mg/kg/injection, schedule: Q07DX005 (ip), vehicle: saline with Tween-80, evaluated on day 30.

Take `NC(=O)c1[nH]cnc1/N=N\N(CCCl)CCCl`: the T/C by setting is: (T/C endpoint: mean tumor weight (est.), dose: 100.0 mg/kg/injection, schedule: Q07DX005 (ip), vehicle: saline, evaluated on day 63) 72 % of control; (T/C endpoint: mean tumor weight (est.), dose: 200.0 mg/kg/injection, schedule: Q07DX005 (ip), vehicle: saline, evaluated on day 63) 36 % of control [8 of 10 alive]; (T/C endpoint: mean tumor weight, dose: 12.5 mg/kg/injection, schedule: Q01DX009 (ip), vehicle: saline, evaluated on day 31) 99 % of control; (T/C endpoint: mean tumor weight, dose: 25.0 mg/kg/injection, schedule: Q01DX009 (ip), vehicle: saline, evaluated on day 31) 56 % of control; (T/C endpoint: mean tumor weight, dose: 50.0 mg/kg/injection, schedule: Q01DX009 (ip), vehicle: saline, evaluated on day 31) 44 % of control; (T/C endpoint: mean tumor weight, dose: 100.0 mg/kg/injection, schedule: Q07DX005 (ip), vehicle: saline, evaluated on day 34) 185 % of control. In addition, the T/C by setting is: (T/C endpoint: mean tumor weight, dose: 100.0 mg/kg/injection, schedule: Q07DX005 (ip), vehicle: saline, evaluated on day 36) 638 % of control; (T/C endpoint: mean tumor weight, dose: 200.0 mg/kg/injection, schedule: Q07DX005 (ip), vehicle: saline, evaluated on day 34) 387 % of control; (T/C endpoint: mean tumor weight, dose: 200.0 mg/kg/injection, schedule: Q07DX005 (ip), vehicle: saline, evaluated on day 36) 105 % of control [9 of 10 alive]; (T/C endpoint: mean tumor weight, dose: 400.0 mg/kg/injection, schedule: Q07DX005 (ip), vehicle: saline, evaluated on day 34) 204 % of control; (T/C endpoint: mean tumor weight, dose: 400.0 mg/kg/injection, schedule: Q07DX005 (ip), vehicle: saline, evaluated on day 36) 62 % of control [9 of 10 alive]; under setting [1], 152 % of control. Further, the T/C is, setting by setting: under setting [2], 114 % of control; under setting [3], 6 % of control; (T/C endpoint: median tumor weight (est.), dose: 100.0 mg/kg/injection, schedule: Q07DX005 (ip), vehicle: saline with Tween-80, evaluated on day 30) 12 % of control. Also, the survivor count runs as follows: (T/C endpoint: median tumor weight (est.), dose: 200.0 mg/kg/injection, schedule: Q07DX005 (ip), vehicle: saline with Tween-80) 4 of 10 on day 30; (T/C endpoint: median tumor weight (est.), dose: 400.0 mg/kg/injection, schedule: Q07DX005 (ip), vehicle: saline with Tween-80) 0 of 10 on day 30.

With `CCCNC(=O)c1ccc(N(CCCl)CCCl)cc1`, the T/C (T/C endpoint: median tumor weight (est.), dose: 25.0 mg/kg/injection, schedule: Q07DX005 (ip), vehicle: Klucel (hydroxypropylcellulose) (HPC), evaluated on day 30) was 124 % of control [9 of 10 alive]; the T/C (T/C endpoint: median tumor weight (est.), dose: 50.0 mg/kg/injection, schedule: Q07DX005 (ip), vehicle: Klucel (hydroxypropylcellulose) (HPC), evaluated on day 30) was 161 % of control; the T/C (T/C endpoint: median tumor weight (est.), dose: 100.0 mg/kg/injection, schedule: Q07DX005 (ip), vehicle: Klucel (hydroxypropylcellulose) (HPC), evaluated on day 30) is 154 % of control [9 of 10 alive].

Take `C[As](C)SC1OC(CO)C(O)C(O)C1O` (configuration not stated): the T/C reads like this: (T/C endpoint: median tumor weight (est.), dose: 6.25 mg/kg/injection, schedule: Q07DX005 (ip), vehicle: saline, evaluated on day 30) 47 % of control [9 of 10 alive on day 30]; (T/C endpoint: median tumor weight (est.), dose: 12.5 mg/kg/injection, schedule: Q07DX005 (ip), vehicle: saline, evaluated on day 30) 118 % of control; (T/C endpoint: median tumor weight (est.), dose: 25.0 mg/kg/injection, schedule: Q07DX005 (ip), vehicle: saline, evaluated on day 30) 58 % of control [7 of 10 alive on day 30]; (T/C endpoint: median tumor weight (est.), dose: 50.0 mg/kg/injection, schedule: Q07DX005 (ip), vehicle: saline, evaluated on day 30) 74 % of control. Also, the survivor count by setting is: (T/C endpoint: median tumor weight (est.), dose: 100.0 mg/kg/injection, schedule: Q07DX005 (ip), vehicle: saline) 6 of 10 on day 30; (T/C endpoint: median tumor weight (est.), dose: 200.0 mg/kg/injection, schedule: Q07DX005 (ip), vehicle: saline) 1 of 10 on day 30.

As to `Nc1cc([As]=O)ccc1O` (configuration not stated), the T/C reads like this: (T/C endpoint: median tumor weight (est.), dose: 3.12 mg/kg/injection, schedule: Q07DX005 (ip), vehicle: saline with Tween-80, evaluated on day 30) 168 % of control; (T/C endpoint: median tumor weight (est.), dose: 6.25 mg/kg/injection, schedule: Q07DX005 (ip), vehicle: saline with Tween-80, evaluated on day 30) 153 % of control; under setting [1], 152 % of control; under setting [2], 127 % of control; under setting [3], 118 % of control. The survivor count (T/C endpoint: median tumor weight (est.), dose: 100.0 mg/kg/injection, schedule: Q07DX005 (ip), vehicle: saline with Tween-80) was 0 of 10 on day 30.

Take `CC1(C)CN1P(=O)(Nc1ncccn1)N1CC1(C)C` (configuration not stated): the T/C by setting is: (T/C endpoint: median tumor weight change, dose: 125.0 mg/kg/injection, schedule: Q01DX001 (ip), vehicle: saline, evaluated on day 25) 130 % of control; (T/C endpoint: median tumor weight change, dose: 250.0 mg/kg/injection, schedule: Q01DX001 (ip), vehicle: saline, evaluated on day 25) 119 % of control; (T/C endpoint: median tumor weight change, dose: 500.0 mg/kg/injection, schedule: Q01DX001 (ip), vehicle: saline, evaluated on day 25) 122 % of control; (T/C endpoint: median tumor weight change, dose: 1000.0 mg/kg/injection, schedule: Q01DX001 (ip), vehicle: saline, evaluated on day 25) 122 % of control. In addition, for the setting “T/C endpoint: median tumor weight change, dose: 2000.0 mg/kg/injection, schedule: Q01DX001 (ip), vehicle: saline”, the survivor count was 6 of 10 on day 25.
